PubChem BioAssay AID602196, INSERM, 2012

Screen: 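Knock-downs that protect lung cancer cells from cisplatin or sensitise them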
Cells: human A549 lung cancer cells
Reagents: siRNA pair against human genes
Timing: 48 h transfection before cisplatin; time from cisplatin to read-out not stated
Challenge: cisplatin at a dose killing half of control-siRNA cells; exact dose and duration not given
Measured: 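Cisplatin cell death as a shift from the 50% death seen with control siRNA; siRNAs toxic or growth-blocking alone scored 0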
Direction: two-siRNA summed score (-2 to +2): higher = both siRNAs protect from cisplatin killing; -2 means both sensitise; mean protection from cisplatin (shift in death) and protection from cisplatin (shift in death), siRNA C: higher = protection from cisplatin killing
Hit rule: 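siRNAs harmful alone (LDH or WST-1) get 0; others get +1 for less and -1 for more cisplatin killing; genes are active when the two siRNAs give the same sign, summing to ±2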
Meaning of the calls: active = both siRNAs shift cisplatin killing the same way; inactive = no consistent shift, or siRNA harmful alone
Shown is a random part of about 23,000 reagents tested. 455 of all reagents (2%) were called active. 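Active includes both protection and sensitisation; some change values fall well beyond the stated -50 to +50 range.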 A number with no mark means an inactive call. Not all columns of the deposit are shown. Not stated in the record: the amount of reagent.

target	two-siRNA summed score (-2 to +2)	mean protection from cisplatin (shift in death) (%)	protection from cisplatin (shift in death), siRNA C (%)
SPRYD3	0	16	33.4
NCOA1	0	-17.2	-4.5
FGFBP2	0	4.6	2.5
LOC146177	0	-1.9	-11.4
ZDHHC20	0	10.3	12.6
TAF4	0	17.2	37.4
FANCA	0	4.5	7.8
LOC442218	1	12.9	13.1
MAGEA2B	1	13.6	19.4
LOC402123	2 (active)	15	12.2
GPR75	-1	-2.1	12.5
LOC392193	1	10.6	16
LOC392164	2 (active)	16.3	18.9
LOC441598	1	13.2	13.2
DMBT1	0	0.3	2.2
LINC02874	0	19.2	4.5
RAB6A	0	8.4	3.4
ANPEP	-1	-8.3	1.7
TRIM13	0	11.6	4.8
CRYBG1	1	17.4	9.6
BANF1	-1	-12	6.1
LOC442647	1	22.6	22.7
WFDC5	0	-1.6	0.8
TSSK4	1	12.4	10.5
ZNF615	-1	-2.6	-14.4
ZNF263	0	14.5	34.2
HYI	-1	-18.5	-38.9
KCNK12	-1	-16	-17.8
LOC442590	1	11.7	9.9
AGPAT4	0	12.4	3.6
RBP2	0	-18.3	-30.2
RALA	0	1	6.3
ATP6V0E1	0	1.5	-2.5
LOC441343	1	9.1	16.9
OR13J1	0	2.1	2.9
LOC442470	0	11.7	15.6
TMEM163	0	-4.7	-6
YARS1	0	-2.9	6.9
LOC400618	0	7.1	8.6
